# From the supplement of paper PMC10849652
# Sequences of proteins named here, by UniProt entry; tags and fusion partners are left off. A change or cut given only in a name is not applied to a line headed by its entry.
# UniProt P68402: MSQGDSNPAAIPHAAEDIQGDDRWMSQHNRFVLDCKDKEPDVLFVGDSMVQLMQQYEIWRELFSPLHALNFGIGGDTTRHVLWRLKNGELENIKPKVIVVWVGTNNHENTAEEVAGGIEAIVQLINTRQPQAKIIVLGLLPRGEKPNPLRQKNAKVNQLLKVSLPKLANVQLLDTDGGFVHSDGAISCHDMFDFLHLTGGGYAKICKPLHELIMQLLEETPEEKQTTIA
# UniProt Q9H4L5: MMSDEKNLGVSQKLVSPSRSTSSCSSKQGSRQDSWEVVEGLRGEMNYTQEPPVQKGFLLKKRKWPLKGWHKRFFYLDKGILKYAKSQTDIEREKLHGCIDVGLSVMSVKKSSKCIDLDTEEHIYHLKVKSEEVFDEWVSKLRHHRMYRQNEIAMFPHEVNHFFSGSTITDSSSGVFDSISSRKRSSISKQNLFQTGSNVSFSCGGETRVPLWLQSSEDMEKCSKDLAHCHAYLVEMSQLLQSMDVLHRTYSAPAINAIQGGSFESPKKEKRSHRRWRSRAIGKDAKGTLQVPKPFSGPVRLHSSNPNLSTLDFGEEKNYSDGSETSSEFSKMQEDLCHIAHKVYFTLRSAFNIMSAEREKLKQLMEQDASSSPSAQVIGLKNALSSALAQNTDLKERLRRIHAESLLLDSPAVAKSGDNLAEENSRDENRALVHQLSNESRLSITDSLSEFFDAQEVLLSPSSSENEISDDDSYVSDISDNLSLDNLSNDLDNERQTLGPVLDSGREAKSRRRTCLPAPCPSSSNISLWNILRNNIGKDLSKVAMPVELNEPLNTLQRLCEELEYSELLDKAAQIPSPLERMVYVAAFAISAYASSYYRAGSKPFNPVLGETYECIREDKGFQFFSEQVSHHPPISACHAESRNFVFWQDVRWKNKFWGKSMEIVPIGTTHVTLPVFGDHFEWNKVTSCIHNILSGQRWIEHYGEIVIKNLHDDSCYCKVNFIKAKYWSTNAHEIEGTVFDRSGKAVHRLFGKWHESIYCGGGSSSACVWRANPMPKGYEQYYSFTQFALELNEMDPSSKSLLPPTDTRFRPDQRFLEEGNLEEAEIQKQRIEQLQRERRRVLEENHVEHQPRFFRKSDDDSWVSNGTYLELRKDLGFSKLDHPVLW
# UniProt Q9H074: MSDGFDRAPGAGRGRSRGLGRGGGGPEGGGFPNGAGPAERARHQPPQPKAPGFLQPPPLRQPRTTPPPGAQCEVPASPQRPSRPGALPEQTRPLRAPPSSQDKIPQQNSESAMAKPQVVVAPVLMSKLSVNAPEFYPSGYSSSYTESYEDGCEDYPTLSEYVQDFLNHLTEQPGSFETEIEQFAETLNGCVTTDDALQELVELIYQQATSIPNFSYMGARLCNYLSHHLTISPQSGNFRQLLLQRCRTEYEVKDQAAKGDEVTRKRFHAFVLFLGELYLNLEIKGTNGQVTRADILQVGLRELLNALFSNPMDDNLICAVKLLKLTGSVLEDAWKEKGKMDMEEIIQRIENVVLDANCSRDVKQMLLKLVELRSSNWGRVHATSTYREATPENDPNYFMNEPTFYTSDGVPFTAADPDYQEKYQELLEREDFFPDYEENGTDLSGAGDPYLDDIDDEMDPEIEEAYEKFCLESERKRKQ
# UniProt O15294: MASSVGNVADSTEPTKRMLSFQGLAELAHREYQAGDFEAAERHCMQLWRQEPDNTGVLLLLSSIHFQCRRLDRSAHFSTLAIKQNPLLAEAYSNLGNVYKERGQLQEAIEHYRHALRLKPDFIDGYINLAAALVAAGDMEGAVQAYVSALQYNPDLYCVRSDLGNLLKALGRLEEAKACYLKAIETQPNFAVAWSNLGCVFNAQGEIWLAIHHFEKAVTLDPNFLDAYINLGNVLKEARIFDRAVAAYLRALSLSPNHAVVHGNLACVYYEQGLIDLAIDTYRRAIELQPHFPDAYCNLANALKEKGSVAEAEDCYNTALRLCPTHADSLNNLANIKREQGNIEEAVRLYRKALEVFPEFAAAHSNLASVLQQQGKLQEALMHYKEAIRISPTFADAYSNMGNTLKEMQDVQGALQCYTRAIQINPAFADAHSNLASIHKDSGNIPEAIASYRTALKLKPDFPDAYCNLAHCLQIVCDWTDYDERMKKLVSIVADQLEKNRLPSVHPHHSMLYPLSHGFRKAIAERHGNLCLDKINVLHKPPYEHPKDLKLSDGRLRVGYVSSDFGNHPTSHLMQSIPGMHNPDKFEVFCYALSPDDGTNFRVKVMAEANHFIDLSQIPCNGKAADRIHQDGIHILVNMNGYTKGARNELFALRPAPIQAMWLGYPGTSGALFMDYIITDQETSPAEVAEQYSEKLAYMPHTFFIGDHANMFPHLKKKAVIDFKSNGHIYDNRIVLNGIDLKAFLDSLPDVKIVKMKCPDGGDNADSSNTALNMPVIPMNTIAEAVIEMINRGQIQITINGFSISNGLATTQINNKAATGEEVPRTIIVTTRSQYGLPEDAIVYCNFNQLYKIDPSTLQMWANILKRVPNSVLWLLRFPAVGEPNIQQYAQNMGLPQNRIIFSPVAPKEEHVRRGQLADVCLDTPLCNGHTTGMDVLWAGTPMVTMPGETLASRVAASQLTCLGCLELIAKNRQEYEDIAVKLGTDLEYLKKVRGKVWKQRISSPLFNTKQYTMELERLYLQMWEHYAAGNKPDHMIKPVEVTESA
# UniProt O60313: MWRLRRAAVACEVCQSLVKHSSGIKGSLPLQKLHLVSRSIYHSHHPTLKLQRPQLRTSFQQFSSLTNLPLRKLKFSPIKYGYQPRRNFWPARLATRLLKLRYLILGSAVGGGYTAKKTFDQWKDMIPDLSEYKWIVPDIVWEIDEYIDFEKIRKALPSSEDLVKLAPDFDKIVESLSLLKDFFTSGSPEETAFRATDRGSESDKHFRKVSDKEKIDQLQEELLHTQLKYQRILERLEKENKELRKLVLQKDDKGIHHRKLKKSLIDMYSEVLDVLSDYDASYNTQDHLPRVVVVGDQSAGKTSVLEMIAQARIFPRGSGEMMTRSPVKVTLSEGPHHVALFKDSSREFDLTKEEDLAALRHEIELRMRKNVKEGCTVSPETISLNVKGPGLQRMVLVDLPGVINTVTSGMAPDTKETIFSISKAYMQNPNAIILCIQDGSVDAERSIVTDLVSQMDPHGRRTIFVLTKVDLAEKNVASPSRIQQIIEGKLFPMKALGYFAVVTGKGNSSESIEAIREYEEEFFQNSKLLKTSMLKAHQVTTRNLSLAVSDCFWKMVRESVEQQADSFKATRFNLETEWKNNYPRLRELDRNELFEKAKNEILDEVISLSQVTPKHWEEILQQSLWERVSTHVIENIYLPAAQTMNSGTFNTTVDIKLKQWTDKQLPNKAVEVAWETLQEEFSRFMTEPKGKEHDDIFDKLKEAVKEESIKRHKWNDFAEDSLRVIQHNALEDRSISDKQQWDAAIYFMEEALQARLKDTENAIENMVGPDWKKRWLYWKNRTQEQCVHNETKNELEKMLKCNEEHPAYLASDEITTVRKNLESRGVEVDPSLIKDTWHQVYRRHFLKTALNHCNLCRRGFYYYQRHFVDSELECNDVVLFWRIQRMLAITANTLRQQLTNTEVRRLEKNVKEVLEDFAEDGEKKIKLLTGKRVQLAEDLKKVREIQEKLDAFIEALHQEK
# UniProt Q5SWX8: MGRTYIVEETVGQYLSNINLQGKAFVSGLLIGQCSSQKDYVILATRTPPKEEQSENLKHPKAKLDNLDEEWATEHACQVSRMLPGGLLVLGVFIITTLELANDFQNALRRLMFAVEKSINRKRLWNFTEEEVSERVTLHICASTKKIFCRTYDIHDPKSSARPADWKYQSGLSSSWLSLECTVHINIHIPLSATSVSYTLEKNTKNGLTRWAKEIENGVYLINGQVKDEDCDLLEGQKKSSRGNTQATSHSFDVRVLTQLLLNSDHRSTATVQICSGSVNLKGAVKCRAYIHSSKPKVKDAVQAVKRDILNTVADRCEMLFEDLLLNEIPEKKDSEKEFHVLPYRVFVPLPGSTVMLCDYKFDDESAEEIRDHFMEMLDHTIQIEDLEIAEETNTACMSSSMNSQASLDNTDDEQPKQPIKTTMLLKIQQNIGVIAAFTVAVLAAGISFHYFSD
# UniProt Q96GU1: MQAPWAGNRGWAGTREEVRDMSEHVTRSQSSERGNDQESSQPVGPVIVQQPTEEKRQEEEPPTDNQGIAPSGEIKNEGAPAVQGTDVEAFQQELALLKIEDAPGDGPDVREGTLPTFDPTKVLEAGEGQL
# UniProt P22234: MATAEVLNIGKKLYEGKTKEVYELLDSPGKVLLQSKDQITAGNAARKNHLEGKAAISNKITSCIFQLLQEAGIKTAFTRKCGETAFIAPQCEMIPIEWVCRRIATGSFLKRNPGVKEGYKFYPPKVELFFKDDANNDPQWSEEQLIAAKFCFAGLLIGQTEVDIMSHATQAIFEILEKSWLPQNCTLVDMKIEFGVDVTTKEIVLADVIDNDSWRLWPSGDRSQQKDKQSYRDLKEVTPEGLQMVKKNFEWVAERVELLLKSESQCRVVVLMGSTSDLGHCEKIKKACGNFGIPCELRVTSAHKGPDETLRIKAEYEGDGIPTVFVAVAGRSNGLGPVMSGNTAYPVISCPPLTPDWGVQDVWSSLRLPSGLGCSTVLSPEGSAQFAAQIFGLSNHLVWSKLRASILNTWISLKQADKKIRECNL
# UniProt Q5W0B1: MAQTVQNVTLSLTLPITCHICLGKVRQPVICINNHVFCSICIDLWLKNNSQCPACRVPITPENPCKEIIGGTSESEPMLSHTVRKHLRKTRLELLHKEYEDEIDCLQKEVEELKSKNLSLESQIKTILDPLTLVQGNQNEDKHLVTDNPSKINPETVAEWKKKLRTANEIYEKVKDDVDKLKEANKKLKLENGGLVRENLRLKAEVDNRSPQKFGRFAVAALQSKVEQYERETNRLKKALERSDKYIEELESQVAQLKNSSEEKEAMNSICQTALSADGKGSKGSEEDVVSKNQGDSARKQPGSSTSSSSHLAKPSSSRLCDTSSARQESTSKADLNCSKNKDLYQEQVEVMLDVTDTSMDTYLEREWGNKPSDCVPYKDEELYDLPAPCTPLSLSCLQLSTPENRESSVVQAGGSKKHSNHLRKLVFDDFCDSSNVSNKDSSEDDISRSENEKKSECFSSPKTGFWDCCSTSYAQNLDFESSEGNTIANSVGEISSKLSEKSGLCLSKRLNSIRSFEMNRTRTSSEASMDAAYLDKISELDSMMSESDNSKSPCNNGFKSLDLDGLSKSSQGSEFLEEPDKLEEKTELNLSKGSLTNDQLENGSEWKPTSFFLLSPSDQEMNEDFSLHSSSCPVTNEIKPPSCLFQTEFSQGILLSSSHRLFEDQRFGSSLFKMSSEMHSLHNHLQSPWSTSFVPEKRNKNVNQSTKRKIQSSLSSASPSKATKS
# UniProt Q7Z3B4: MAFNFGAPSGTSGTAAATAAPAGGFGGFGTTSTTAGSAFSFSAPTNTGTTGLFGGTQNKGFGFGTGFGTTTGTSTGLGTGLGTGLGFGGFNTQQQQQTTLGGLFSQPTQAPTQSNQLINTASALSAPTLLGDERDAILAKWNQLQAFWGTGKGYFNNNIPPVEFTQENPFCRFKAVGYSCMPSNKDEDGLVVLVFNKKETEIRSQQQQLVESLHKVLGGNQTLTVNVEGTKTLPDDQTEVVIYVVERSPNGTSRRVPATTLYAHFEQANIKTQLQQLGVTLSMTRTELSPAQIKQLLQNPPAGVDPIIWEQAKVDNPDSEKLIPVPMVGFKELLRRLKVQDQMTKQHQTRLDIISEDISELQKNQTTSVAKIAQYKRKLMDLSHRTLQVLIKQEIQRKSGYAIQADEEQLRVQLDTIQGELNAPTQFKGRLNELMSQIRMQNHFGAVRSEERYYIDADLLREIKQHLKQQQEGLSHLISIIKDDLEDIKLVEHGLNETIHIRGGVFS
# UniProt Q32P28: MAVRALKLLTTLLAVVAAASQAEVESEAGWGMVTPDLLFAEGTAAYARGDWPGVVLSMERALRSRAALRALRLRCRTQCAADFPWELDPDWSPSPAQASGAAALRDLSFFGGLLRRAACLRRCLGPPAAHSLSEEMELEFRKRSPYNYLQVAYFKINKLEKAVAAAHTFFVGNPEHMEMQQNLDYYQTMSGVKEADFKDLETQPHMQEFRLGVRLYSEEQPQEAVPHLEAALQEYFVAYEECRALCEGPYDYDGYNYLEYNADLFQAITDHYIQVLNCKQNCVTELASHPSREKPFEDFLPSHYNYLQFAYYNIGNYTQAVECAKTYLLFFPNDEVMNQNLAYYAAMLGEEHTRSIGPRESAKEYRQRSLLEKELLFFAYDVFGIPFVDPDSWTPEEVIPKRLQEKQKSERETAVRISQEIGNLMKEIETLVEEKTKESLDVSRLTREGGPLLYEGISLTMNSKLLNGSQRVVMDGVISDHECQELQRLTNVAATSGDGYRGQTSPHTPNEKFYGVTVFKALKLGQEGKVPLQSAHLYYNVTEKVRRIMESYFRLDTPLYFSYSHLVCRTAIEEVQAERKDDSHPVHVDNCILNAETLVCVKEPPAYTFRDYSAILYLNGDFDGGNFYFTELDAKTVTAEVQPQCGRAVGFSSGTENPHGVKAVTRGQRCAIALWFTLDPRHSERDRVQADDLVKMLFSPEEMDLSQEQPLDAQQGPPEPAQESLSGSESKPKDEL
# The list shows a part of the results.
# Legend:
# Assay in all cases: log2 fold change, soluble protein after heating vs DMSO (PISA); higher = thermal stabilisation; K562 lysate, 10 uM; active = over 0.2 and 3.5 SD of the protein, either way, in both replicates (recomputed)
# vemurafenib = compound: CCCS(=O)(=O)Nc1ccc(F)c(C(=O)c2c[nH]c3ncc(-c4ccc(Cl)cc4)cc23)c1F [vemurafenib]
# Method in brief: (§1)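 Thermal stability, expressed as log-two fold change relative to solvent controls, is given from duplicates. Crude K562 extract in PBS pH 7.4 with 1 mM MgCl2, at 1 mg/mL protein, was treated with 10 μM compound for 30 min and heated in aliquots for 3 min across 48°C-58°C. After pooling, adjustment to 0.5% NP-40 at 4°C and centrifugation at 21,000xg for 90 min, supernatant protein was measured by TMTpro 16plex LC-MS/MS with channel sums equalised.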
# [1] = compound: CCCS(=O)(=O)Nc1ccc(F)c(C(=O)c2c[nH]c3ncc(Cl)cc23)c1F
# Method in brief: as §1
# barasertib = compound: CCN(CCCOc1ccc2c(Nc3cc(CC(=O)Nc4cccc(F)c4)[nH]n3)ncnc2c1)CCOP(=O)(O)O [barasertib]
# Method in brief: as §1
# [2] = compound: CC[C@@H]1C(=O)N(C)c2cnc(Nc3ccc(C(=O)NC4CCN(C)CC4)cc3OC)nc2N1C1CCCC1
# Method in brief: as §1
# volasertib = compound: CC[C@@H]1C(=O)N(C)c2cnc(Nc3ccc(C(=O)N[C@H]4CC[C@H](N5CCN(CC6CC6)CC5)CC4)cc3OC)nc2N1C(C)C [volasertib]
# Method in brief: as §1
# [3] = compound: CCn1c(C(=O)N(C2CC2)C2CC2)cc2c3c(ncn3C)c(Nc3cc(C)n(C)n3)nc21
# Method in brief: as §1
# [4] = compound: CCn1cc(-c2ccnc3[nH]c(-c4cccc(CN(C)C)c4)cc23)c(-c2ccc(NC(=O)N(C)C)cc2)n1
# Method in brief: as §1
# [5] = compound: CN1CCC(CNc2ccc3ncc(-c4cccc(OC(F)(F)F)c4)n3n2)CC1
# Method in brief: as §1
# saracatinib = compound: CN1CCN(CCOc2cc(OC3CCOCC3)c3c(Nc4c(Cl)ccc5c4OCO5)ncnc3c2)CC1 [saracatinib]
# Method in brief: as §1
# sotrastaurin = compound: CN1CCN(c2nc(C3=C(c4c[nH]c5ccccc45)C(=O)NC3=O)c3ccccc3n2)CC1 [sotrastaurin]
# Method in brief: as §1
# alvocidib = compound: CN1CC[C@H](c2c(O)cc(O)c3c(=O)cc(-c4ccccc4Cl)oc23)[C@H](O)C1 [alvocidib]
# Method in brief: as §1
# Tubastatin A = compound: CN1CCc2c(c3ccccc3n2Cc2ccc(C(=O)NO)cc2)C1 [Tubastatin A]
# Method in brief: as §1
# [6] = compound: CNC(=O)C1=CC=CC=C1NC2=NC(=NC=C2Cl)NC3=C(C=C(C=C3)N4CCOCC4)OC
# Method in brief: as §1
# defactinib = compound: CNC(=O)c1ccc(Nc2ncc(C(F)(F)F)c(NCc3nccnc3N(C)S(C)(=O)=O)n2)cc1 [defactinib]
# Method in brief: as §1
# [7] = compound: CNc1nc(-c2ccc3c(N)n[nH]c3c2)cc(N2C[C@@H](C(=O)NC3CCCCC3)CC[C@H]2C)n1
# Method in brief: as §1
# encorafenib = compound: COC(=O)N[C@@H](C)CNc1nccc(-c2cn(C(C)C)nc2-c2cc(Cl)cc(NS(C)(=O)=O)c2F)n1 [encorafenib]
# Method in brief: as §1
# [8] = compound: COC(=O)[C@H](CCSC)NC(=O)C1=C(C=C(C=C1)NC[C@H](CS)N)C2=CC=CC=C2
# Method in brief: as §1
# alisertib = compound: COc1cc(Nc2ncc3c(n2)-c2ccc(Cl)cc2C(c2c(F)cccc2OC)=NC3)ccc1C(=O)O [alisertib]
# Method in brief: as §1
# [9] = compound: COc1cc2nc(-c3cc(F)ccc3O)nc(N[C@@H]3CNC[C@H]3C(C)(C)O)c2cc1OC
# Method in brief: as §1
# gefitinib = compound: COc1cc2ncnc(Nc3ccc(F)c(Cl)c3)c2cc1OCCCN1CCOCC1 [gefitinib]
# Method in brief: as §1
Target,log2 fold change (vemurafenib),log2 fold change [1],log2 fold change (barasertib),log2 fold change [2],log2 fold change (volasertib),log2 fold change [3],log2 fold change [4],log2 fold change [5],log2 fold change (saracatinib),log2 fold change (sotrastaurin),log2 fold change (alvocidib),log2 fold change (Tubastatin A),log2 fold change [6],log2 fold change (defactinib),log2 fold change [7],log2 fold change (encorafenib),log2 fold change [8],log2 fold change (alisertib),log2 fold change [9],log2 fold change (gefitinib)
PAFAH1B2 (UniProt P68402),inactive: 0.009,inactive: -0.047,inactive: 0.093,inactive: -0.025,inactive: 0.012,inactive: -0.053,inactive: -0.084,inactive: 0.037,inactive: 0.01,inactive: 0.042,inactive: -0.025,inactive: -0.033,inactive: -0.032,inactive: 0.007,inactive: -0.004,inactive: -0.027,inactive: 0.028,inactive: -0.076,inactive: -0.018,inactive: 0.042
OSBPL3 isoform 2 (UniProt Q9H4L5),inactive: 0.018,inactive: 0.01,inactive: 0.005,inactive: -0.053,inactive: -0.139,inactive: 0.025,inactive: -0.013,inactive: -0.068,inactive: 0.04,inactive: 0.018,inactive: -0.013,inactive: -0.161,inactive: 0.056,inactive: -0.11,inactive: -0.033,inactive: 0.03,inactive: 0.052,inactive: -0.043,inactive: -0.002,inactive: 0.206
PAICS (UniProt E9PBS1),inactive: -0.086,inactive: -0.033,inactive: 0.025,inactive: -0.065,inactive: 0.015,inactive: 0.242,inactive: 0.381,inactive: -0.008,inactive: -0.062,inactive: -0.101,inactive: 0.269,inactive: 0.11,inactive: -0.194,inactive: 0.082,inactive: -0.081,inactive: 0.026,inactive: -0.028,inactive: -0.085,inactive: 0.099,inactive: 0.126
PAN2 isoform 2 (UniProt Q504Q3),inactive: 0.072,inactive: 0.031,inactive: 0.03,inactive: 0.041,inactive: -0.132,inactive: 0.031,inactive: 0.006,inactive: -0.04,inactive: -0.021,inactive: 0.018,inactive: -0.023,inactive: -0.025,inactive: -0.018,inactive: -0.099,inactive: -0.046,inactive: 0.08,inactive: -0.041,inactive: 0,inactive: -0.043,inactive: -0.044
PAIP1 (UniProt Q9H074),inactive: -0.036,inactive: 0.015,inactive: -0.022,inactive: 0.004,inactive: 0.016,inactive: 0.014,inactive: 0.017,inactive: 0.056,inactive: -0.013,inactive: -0.029,inactive: -0.003,inactive: 0.036,inactive: 0.012,inactive: 0.004,inactive: 0,inactive: 0,inactive: -0.047,inactive: 0.001,inactive: 0.008,inactive: -0.01
OGT (UniProt O15294),inactive: 0.012,inactive: 0.015,inactive: 0.031,inactive: -0.003,inactive: -0.058,inactive: 0.036,inactive: -0.002,inactive: -0.021,inactive: 0.011,inactive: 0.018,inactive: 0.045,inactive: -0.129,inactive: 0.054,inactive: 0.018,inactive: 0.019,inactive: 0.043,inactive: 0.121,inactive: 0.01,inactive: 0.007,inactive: -0.015
OXSR1 (UniProt O95747),inactive: 0.003,inactive: 0.036,inactive: 0.071,inactive: -0.054,inactive: -0.071,inactive: 0.015,inactive: 0.004,inactive: -0.063,inactive: 0.022,inactive: -0.011,inactive: 0.013,inactive: -0.106,inactive: 0.016,inactive: 0.025,inactive: -0.049,inactive: 0.032,inactive: 0.205,inactive: 0.021,inactive: 0.003,inactive: -0.021
OPA1 isoform 2 (UniProt O60313),inactive: 0.022,inactive: 0.029,inactive: 0.024,inactive: -0.057,inactive: -0.033,inactive: 0.037,inactive: -0.016,inactive: -0.192,inactive: 0.007,inactive: 0.014,inactive: 0.012,inactive: 0.038,inactive: -0.032,inactive: -0.013,inactive: -0.042,inactive: -0.017,inactive: 0.053,inactive: 0.03,inactive: -0.041,inactive: -0.003
ODR4 (UniProt Q5SWX8),inactive: 0.041,inactive: -0.033,inactive: 0.014,inactive: 0.016,inactive: -0.103,inactive: 0.015,inactive: 0.107,inactive: -0.095,inactive: 0.019,inactive: 0.035,inactive: -0.01,inactive: 0.058,inactive: -0.006,inactive: 0.006,inactive: -0.037,inactive: 0.021,inactive: 0.059,inactive: 0.051,inactive: 0.012,inactive: -0.059
PAGE5 (UniProt Q96GU1),inactive: -0.115,inactive: -0.103,inactive: 0.133,inactive: -0.059,inactive: 0.069,inactive: 0.078,inactive: 0.145,inactive: -0.222,inactive: 0.053,inactive: 0.025,inactive: 0.26,inactive: 0.143,inactive: 0.069,inactive: 0.238,inactive: -0.044,inactive: 0.036,inactive: 0.011,inactive: -0.043,inactive: -0.165,inactive: -0.211
PAICS (UniProt P22234),inactive: -0.007,inactive: 0.014,inactive: -0.029,inactive: 0.018,inactive: 0.026,inactive: -0.042,inactive: 0.015,inactive: 0.052,inactive: -0.033,inactive: -0.007,inactive: -0.029,inactive: 0.073,inactive: -0.017,inactive: -0.023,inactive: 0.023,inactive: -0.05,inactive: -0.05,inactive: 0.015,inactive: 0.018,inactive: -0.012
NUSAP1 (UniProt Q9BXS6),inactive: 0.001,inactive: 0.009,inactive: -0.002,inactive: 0.073,inactive: 0.004,inactive: -0.009,active: -0.399,inactive: 0.189,inactive: 0.019,inactive: -0.001,inactive: -0.17,inactive: 0.029,inactive: -0.02,inactive: 0.027,inactive: 0.07,inactive: 0.012,inactive: -0.028,inactive: 0.01,inactive: -0.002,inactive: -0.012
PAPSS1 (UniProt O43252),inactive: -0.024,inactive: -0.007,inactive: -0.004,inactive: -0.055,inactive: -0.002,inactive: -0.007,inactive: -0.092,inactive: 0.046,inactive: -0.039,inactive: 0.009,inactive: -0.034,inactive: -0.015,inactive: 0.009,inactive: -0.005,inactive: -0.011,inactive: 0.01,inactive: 0.017,inactive: -0.014,inactive: -0.008,inactive: 0.011
OBI1 (UniProt Q5W0B1),inactive: -0.125,inactive: -0.02,inactive: 0.165,inactive: -0.079,inactive: -0.126,inactive: 0.04,inactive: 0.104,inactive: -0.119,inactive: 0.041,inactive: 0.024,inactive: 0.005,inactive: -0.113,inactive: 0.096,inactive: 0,inactive: -0.002,inactive: -0.098,inactive: -0.042,inactive: -0.02,inactive: -0.032,inactive: -0.011
NUP54 (UniProt Q7Z3B4),inactive: -0.019,inactive: 0.027,inactive: 0.067,inactive: 0.031,inactive: -0.048,inactive: 0.03,inactive: -0.21,inactive: 0.092,inactive: 0.01,inactive: 0.003,inactive: -0.031,inactive: -0.011,inactive: 0.015,inactive: -0.037,inactive: 0.013,inactive: 0.014,inactive: 0.194,inactive: -0.004,inactive: 0.016,inactive: -0.016
P3H1 (UniProt Q32P28),inactive: -0.027,inactive: 0.028,inactive: -0.002,inactive: -0.019,inactive: -0.001,inactive: -0.009,inactive: -0.069,inactive: -0.019,inactive: 0.01,inactive: 0.015,inactive: 0.005,inactive: -0.002,inactive: 0.019,inactive: 0.004,inactive: 0.01,inactive: 0.035,inactive: -0.035,inactive: -0.025,inactive: 0.025,inactive: -0.008

# Whole records from above. Order of values: log2 fold change (vemurafenib) | log2 fold change [1] | log2 fold change (barasertib) | log2 fold change [2] | log2 fold change (volasertib) | log2 fold change [3] | log2 fold change [4] | log2 fold change [5] | log2 fold change (saracatinib) | log2 fold change (sotrastaurin) | log2 fold change (alvocidib) | log2 fold change (Tubastatin A) | log2 fold change [6] | log2 fold change (defactinib) | log2 fold change [7] | log2 fold change (encorafenib) | log2 fold change [8] | log2 fold change (alisertib) | log2 fold change [9] | log2 fold change (gefitinib)
# P3H1 (UniProt Q32P28) as listed: inactive: -0.027 | inactive: 0.028 | inactive: -0.002 | inactive: -0.019 | inactive: -0.001 | inactive: -0.009 | inactive: -0.069 | inactive: -0.019 | inactive: 0.01 | inactive: 0.015 | inactive: 0.005 | inactive: -0.002 | inactive: 0.019 | inactive: 0.004 | inactive: 0.01 | inactive: 0.035 | inactive: -0.035 | inactive: -0.025 | inactive: 0.025 | inactive: -0.008
# ODR4 (UniProt Q5SWX8) as listed: inactive: 0.041 | inactive: -0.033 | inactive: 0.014 | inactive: 0.016 | inactive: -0.103 | inactive: 0.015 | inactive: 0.107 | inactive: -0.095 | inactive: 0.019 | inactive: 0.035 | inactive: -0.01 | inactive: 0.058 | inactive: -0.006 | inactive: 0.006 | inactive: -0.037 | inactive: 0.021 | inactive: 0.059 | inactive: 0.051 | inactive: 0.012 | inactive: -0.059
